{"source": "PubChem BioAssay AID1224829 (NIAID, 2016)", "assay": "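Genes needed for LPS-driven NF-kappaB p65 nuclear entry in mouse macrophages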 (follow-up of hits)", "cells": "mouse RAW264.7 G9 macrophage reporter cells", "reagents": "single siRNA against mouse genes, 100 nM", "time to read-out": "2 days of siRNA knock-down, then 40 min of LPS before fixing", "treatment": "LPS (Salmonella minnesota R595) at 10 ng/ml", "read-out": "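High-content images after 40 min LPS exposure; GFP-p65 nucleus to surrounding ring signal ratio, normalised to plate median and non-targeting control wells, expressed as z-score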", "reading the numbers": "p65 translocation z-score and gene median z-score, per vendor: higher = more nuclear NF-kappaB p65 after LPS", "call rule": "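An siRNA is called active when the mean z-score of its two replicates is above 2 or below -2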", "calls": "active = changed p65 translocation (either direction); inactive = no clear change", "note": "The whole screen tested about 3,800 reagents; shown is a part drawn at random. 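Calls cover raised and lowered translocation; gene median uses one vendor's three siRNAs; qiagen siRNAs acted more weakly than ambion siRNAs.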 Unmarked entries are inactive. Reagents against one gene are numbered here. No sequences are given here."}
{"Gene": "Gxylt2 (glucoside xylosyltransferase 2)", "siRNA no.": 1, "siRNA vendor or control pool": "ambion single siRNA", "p65 translocation z-score, replicate mean": "-3.6 (active)", "p65 translocation z-score, replicate 1": -4.74, "p65 translocation z-score, replicate 2": -2.47, "gene median z-score, per vendor": -1.74}
{"Gene": "Gxylt2 (glucoside xylosyltransferase 2)", "siRNA no.": 2, "siRNA vendor or control pool": "ambion single siRNA", "p65 translocation z-score, replicate mean": -0.859, "p65 translocation z-score, replicate 1": -1.11, "p65 translocation z-score, replicate 2": -0.611, "gene median z-score, per vendor": -1.74}
{"Gene": "Gxylt2 (glucoside xylosyltransferase 2)", "siRNA no.": 3, "siRNA vendor or control pool": "ambion single siRNA", "p65 translocation z-score, replicate mean": -1.74, "p65 translocation z-score, replicate 1": -1.74, "gene median z-score, per vendor": -1.74}
{"Gene": "Gxylt2 (glucoside xylosyltransferase 2)", "siRNA no.": 4, "siRNA vendor or control pool": "qiagen single siRNA", "p65 translocation z-score, replicate mean": -1.56, "p65 translocation z-score, replicate 1": -1.31, "p65 translocation z-score, replicate 2": -1.81, "gene median z-score, per vendor": -1.37}
{"Gene": "Gxylt2 (glucoside xylosyltransferase 2)", "siRNA no.": 5, "siRNA vendor or control pool": "qiagen single siRNA", "p65 translocation z-score, replicate mean": -0.767, "p65 translocation z-score, replicate 1": -1.43, "p65 translocation z-score, replicate 2": -0.103, "gene median z-score, per vendor": -1.37}
{"Gene": "Gxylt2 (glucoside xylosyltransferase 2)", "siRNA no.": 6, "siRNA vendor or control pool": "qiagen single siRNA", "gene median z-score, per vendor": -1.37}
{"Gene": "4933431E20Rik (RIKEN cDNA 4933431E20 gene)", "siRNA no.": 1, "siRNA vendor or control pool": "qiagen single siRNA", "p65 translocation z-score, replicate mean": -0.0147, "p65 translocation z-score, replicate 1": -1.43, "p65 translocation z-score, replicate 2": 1.4, "gene median z-score, per vendor": -1.51}
{"Gene": "4933431E20Rik (RIKEN cDNA 4933431E20 gene)", "siRNA no.": 2, "siRNA vendor or control pool": "qiagen single siRNA", "p65 translocation z-score, replicate mean": "-2.17 (active)", "p65 translocation z-score, replicate 1": -1.48, "p65 translocation z-score, replicate 2": -2.87, "gene median z-score, per vendor": -1.51}
{"Gene": "4933431E20Rik (RIKEN cDNA 4933431E20 gene)", "siRNA no.": 3, "siRNA vendor or control pool": "qiagen single siRNA", "p65 translocation z-score, replicate mean": "-2.96 (active)", "p65 translocation z-score, replicate 1": -1.54, "p65 translocation z-score, replicate 2": -4.38, "gene median z-score, per vendor": -1.51}
{"Gene": "Trim67 (tripartite motif-containing 67)", "siRNA no.": 1, "siRNA vendor or control pool": "ambion single siRNA", "p65 translocation z-score, replicate mean": "2.49 (active)", "p65 translocation z-score, replicate 1": 2.18, "p65 translocation z-score, replicate 2": 2.8, "gene median z-score, per vendor": -0.615}
{"Gene": "Trim67 (tripartite motif-containing 67)", "siRNA no.": 2, "siRNA vendor or control pool": "ambion single siRNA", "p65 translocation z-score, replicate mean": -0.615, "p65 translocation z-score, replicate 1": -0.202, "p65 translocation z-score, replicate 2": -1.03, "gene median z-score, per vendor": -0.615}
{"Gene": "Trim67 (tripartite motif-containing 67)", "siRNA no.": 3, "siRNA vendor or control pool": "ambion single siRNA", "p65 translocation z-score, replicate mean": "-5.68 (active)", "p65 translocation z-score, replicate 1": -5.69, "p65 translocation z-score, replicate 2": -5.67, "gene median z-score, per vendor": -0.615}
{"Gene": "Trim67 (tripartite motif-containing 67)", "siRNA no.": 4, "siRNA vendor or control pool": "qiagen single siRNA", "p65 translocation z-score, replicate mean": 0.27, "p65 translocation z-score, replicate 1": -0.154, "p65 translocation z-score, replicate 2": 0.694, "gene median z-score, per vendor": -0.603}
{"Gene": "Trim67 (tripartite motif-containing 67)", "siRNA no.": 5, "siRNA vendor or control pool": "qiagen single siRNA", "p65 translocation z-score, replicate mean": "-3.05 (active)", "p65 translocation z-score, replicate 1": -1.76, "p65 translocation z-score, replicate 2": -4.33, "gene median z-score, per vendor": -0.603}
{"Gene": "Trim67 (tripartite motif-containing 67)", "siRNA no.": 6, "siRNA vendor or control pool": "qiagen single siRNA", "p65 translocation z-score, replicate mean": -0.567, "p65 translocation z-score, replicate 1": -1.05, "p65 translocation z-score, replicate 2": -0.0819, "gene median z-score, per vendor": -0.603}
{"Gene": "Ucp2", "siRNA no.": 1, "siRNA vendor or control pool": "ambion single siRNA", "p65 translocation z-score, replicate mean": "2.05 (active)", "p65 translocation z-score, replicate 1": 3.3, "p65 translocation z-score, replicate 2": 0.81, "gene median z-score, per vendor": -0.136}
{"Gene": "Ucp2", "siRNA no.": 2, "siRNA vendor or control pool": "ambion single siRNA", "p65 translocation z-score, replicate mean": "-2.02 (active)", "p65 translocation z-score, replicate 1": -1.92, "p65 translocation z-score, replicate 2": -2.13, "gene median z-score, per vendor": -0.136}
{"Gene": "Ucp2", "siRNA no.": 3, "siRNA vendor or control pool": "ambion single siRNA", "p65 translocation z-score, replicate mean": 1.13, "p65 translocation z-score, replicate 1": 3.34, "p65 translocation z-score, replicate 2": -1.08, "gene median z-score, per vendor": -0.136}
{"Gene": "Ucp2", "siRNA no.": 4, "siRNA vendor or control pool": "qiagen single siRNA", "p65 translocation z-score, replicate mean": "2.19 (active)", "p65 translocation z-score, replicate 1": 2.45, "p65 translocation z-score, replicate 2": 1.94, "gene median z-score, per vendor": -0.653}
{"Gene": "Ucp2", "siRNA no.": 5, "siRNA vendor or control pool": "qiagen single siRNA", "p65 translocation z-score, replicate mean": -0.95, "p65 translocation z-score, replicate 1": 0.161, "p65 translocation z-score, replicate 2": -2.06, "gene median z-score, per vendor": -0.653}
{"Gene": "Ucp2", "siRNA no.": 6, "siRNA vendor or control pool": "qiagen single siRNA", "p65 translocation z-score, replicate mean": -1.55, "p65 translocation z-score, replicate 1": -1.63, "p65 translocation z-score, replicate 2": -1.47, "gene median z-score, per vendor": -0.653}

2 entries from above, ordered by “p65 translocation z-score, replicate 1”, highest first.
{"Gene": "Ucp2", "siRNA no.": 1, "siRNA vendor or control pool": "ambion single siRNA", "p65 translocation z-score, replicate mean": "2.05 (active)", "p65 translocation z-score, replicate 1": 3.3, "p65 translocation z-score, replicate 2": 0.81, "gene median z-score, per vendor": -0.136}
{"Gene": "Ucp2", "siRNA no.": 2, "siRNA vendor or control pool": "ambion single siRNA", "p65 translocation z-score, replicate mean": "-2.02 (active)", "p65 translocation z-score, replicate 1": -1.92, "p65 translocation z-score, replicate 2": -2.13, "gene median z-score, per vendor": -0.136}
